Among the data in paper PMC11811891, “Structural insights into human TFIIIC promoter recognition” (Science Advances, 2023) are binding values, retold here.

No constants are given. Whether binding was seen depends on the method and setting. Some entries that bind do so weakly or less than the wild type.

The test addresses T1, human TFIIIC subunit TFIIIC110 (human), Q8WUA4.
T1 chain: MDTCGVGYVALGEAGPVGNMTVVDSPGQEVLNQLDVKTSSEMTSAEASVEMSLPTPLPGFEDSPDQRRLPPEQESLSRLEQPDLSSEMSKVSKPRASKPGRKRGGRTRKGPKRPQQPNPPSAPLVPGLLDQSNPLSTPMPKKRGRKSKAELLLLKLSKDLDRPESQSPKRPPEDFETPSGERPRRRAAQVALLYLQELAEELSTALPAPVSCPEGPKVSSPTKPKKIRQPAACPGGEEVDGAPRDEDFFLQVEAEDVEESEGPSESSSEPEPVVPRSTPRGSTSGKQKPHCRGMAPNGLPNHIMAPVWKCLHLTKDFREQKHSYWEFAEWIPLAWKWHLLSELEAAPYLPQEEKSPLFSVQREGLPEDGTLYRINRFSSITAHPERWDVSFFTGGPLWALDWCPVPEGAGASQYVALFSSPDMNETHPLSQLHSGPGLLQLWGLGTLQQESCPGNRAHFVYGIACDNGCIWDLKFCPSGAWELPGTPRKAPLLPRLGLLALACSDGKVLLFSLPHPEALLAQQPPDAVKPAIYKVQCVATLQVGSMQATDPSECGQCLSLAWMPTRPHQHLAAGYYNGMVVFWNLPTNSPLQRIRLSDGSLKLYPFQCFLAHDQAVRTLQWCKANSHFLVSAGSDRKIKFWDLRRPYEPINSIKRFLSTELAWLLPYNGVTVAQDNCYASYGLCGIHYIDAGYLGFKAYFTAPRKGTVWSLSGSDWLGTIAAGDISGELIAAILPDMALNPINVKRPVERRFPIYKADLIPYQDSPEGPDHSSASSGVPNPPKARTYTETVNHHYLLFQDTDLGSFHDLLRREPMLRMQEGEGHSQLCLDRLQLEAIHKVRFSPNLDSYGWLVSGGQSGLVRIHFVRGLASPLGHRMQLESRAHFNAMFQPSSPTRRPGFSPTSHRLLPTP
Kind of test: cryo-EM structure; purified hTFIIIC (3.17 μM) alone or with human TRR-TCT3-2 tRNA gene DNA at a 1:1 molar ratio; EM buffer 20 mM Hepes pH 8, 225 mM KCl, 2 mM MgCl2, 5 mM DTT; 0.1% octyl-β-glucoside; separate reconstructions of τA and of dimeric τB; both purified. The note with it: remark: other sources report otherwise.

B1: human TFIIIC subunit TFIIIC90 (natural protein)
chain: MNTADQARVGPADDGPAPSGEEEGEGGGEAGGKEPAADAAPGPSAAFRLMVTRREPAVKLQYAVSGLEPLAWSEDHRVSVSTARSIAVLELICDVHNPGQDLVIHRTSVPAPLNSCLLKVGSKTEVAECKEKFAASKDPTVSQTFMLDRVFNPEGKALPPMRGFKYTSWSPMGCDANGRCLLAALTMDNRLTIQANLNRLQWVQLVDLTEIYGERLYETSYRLSKNEAPEGNLGDFAEFQRRHSMQTPVRMEWSGICTTQQVKHNNECRDVGSVLLAVLFENGNIAVWQFQLPFVGKESISSCNTIESGITSPSVLFWWEYEHNNRKMSGLIVGSAFGPIKILPVNLKAVKGYFTLRQPVILWKEMDQLPVHSIKCVPLYHPYQKCSCSLVVAARGSYVFWCLLLISKAGLNVHNSHVTGLHSLPIVSMTADKQNGTVYTCSSDGKVRQLIPIFTDVALKFEHQLIKLSDVFGSVRTHGIAVSPCGAYLAIITTEGMINGLHPVNKNYQVQFVTLKTFEEAAAQLLESSVQNLFKQVDLIDLVRWKILKDKHIPQFLQEALEKKIESSGVTYFWRFKLFLLRILYQSMQKTPSEALWKPTHEDSKILLVDSPGMGNADDEQQEEGTSSKQVVKQGLQERSKEGDVEEPTDDSLPTTGDAGGREPMEEKLLEIQGKIEAVEMHLTREHMKRVLGEVYLHTWITENTSIPTRGLCNFLMSDEEYDDRTARVLIGHISKKMNKQTFPEHCSLCKEILPFTDRKQAVCSNGHIWLRCFLTYQSCQSLIYRRCLLHDSIARHPAPEDPDWIKRLLQSPCPFCDSPVF
notes: TFIIIC90, subunit of human TFIIIC; coding gene from DNASU, codon-optimized for insect cells; No truncation is described; also called τ60 in yeast (homolog); source: Sf21 insect cells, baculovirus, coexpressed with the other five hTFIIIC subunits; purified (anti-FLAG M2 agarose, Capto HiRes Q)
In the case of B1, the binding result is recorded as “binds”.
